The exact form of at least one protein or probe is not confirmed. The comparison behind a weaker result is the experiment's own reference, which may not be listed here.
Molecular target: T1, PhoB~P (phosphorylated PhoB) (Escherichia coli) (UniProt P0AFJ5)
T1 sequence: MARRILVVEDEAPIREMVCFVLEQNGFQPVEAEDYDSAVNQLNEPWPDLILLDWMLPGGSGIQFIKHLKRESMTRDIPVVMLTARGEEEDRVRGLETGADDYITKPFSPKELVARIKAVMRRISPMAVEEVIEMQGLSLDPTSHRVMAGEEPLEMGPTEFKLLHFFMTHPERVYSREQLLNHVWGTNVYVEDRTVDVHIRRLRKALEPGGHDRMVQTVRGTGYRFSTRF
Experiment: EMSA
Settings: 50 mM Tris pH 7.6, 200 mM NaCl, 0.1 mg/ml BSA, 2 mM MgCl2, 1 mM DTT, 5% glycerol, ~0.1 uM DNA (mM in the source), 15 uM nonfluorescent competitor dsDNA, 30 min, recombinant protein, label: 5'-FAM on strand 1

Row | Sequence | Kd (phosphoramidate-phosphorylated PhoB, Hill fit) | binding result (phosphoramidate-phosphorylated PhoB up to 8.4 uM, little binding)
1 | AATGCGACGTCATTATGCGTCAGATTTAT (double strand) [phoB-rp (repression site, antisense strand)] | 0.0049 mM | 
2 | AATGCGAGCACATTATGGAACAGATTTAT (double strand) [phoB-rp2 (repression site mutant)] |  | binds more weakly

Reference: paper PMC6194859
